Laboratory results reported in US20080275049A1, “Methods and Compositions for Upregulation of GATA Activity” (REDDY US THERAPEUTICS, INC., priority 2007, published 2008).
At least one structure is not confirmed: it was looked up by name or label, or the drawing left a doubt.

Tested on: Ob/ob mice
Assay: Plasma glucose in ob/ob mice (insulin resistance and diabetes model)
Assay type: in vivo
Settings: 2 and 4 weeks of treatment, FIG. 9
Protocol: Glucose Measurements: Glucose levels were measured at the end of the studies using commercially available kits. Ob/ob mice were treated with control vehicle or vehicle containing Compound A (GATA activator) or vehicle containing pioglitazone (a known antidiabetic drug).

`CCc1ccc(CCOc2ccc(CC3SC(=O)NC3=O)cc2)nc1` (stereo not shown) [pioglitazone, reference compound] was tested, and the plasma glucose was “glucose lowering activity”.
